The values below come from publication PMC8466066, “Searching for Biological Function of the Mysterious PA2504 Protein from Pseudomonas aeruginosa” (International Journal of Molecular Sciences, 2021).

Experiment [1] deals with PA2504 protein, T18 fusion of the bacterial two-hybrid system (plasmid p18C2504) (Pseudomonas aeruginosa) (UniProt Q9I0X8). The experiment is described as follows: two-hybrid; one-to-one BACTH in E. coli BTH101 cyaA; MacConkey selective medium with maltose (red colonies) or LB X-Gal IPTG medium; negative controls with one empty vector.
Experiment [2] has as its target His6-tagged PA2504 expressed in P. aeruginosa ΔPA2504 (plasmid pKGB2504) (Pseudomonas aeruginosa) (UniProt Q9I0X8). The experiment is described as follows: cross-linking; in vivo formaldehyde cross-linking (0.1% to 1% tested), His6-PA2504 isolated on Ni-NTA, loading dye at 65 °C for 20 min to preserve the cross-links, SDS-PAGE and western blotting.

Results are given in words; binding and its absence hold for the method and conditions named. For some assays here: In cells and extracts the contact can be indirect. Some binding calls cover weakened binding; strength is not graded here. Tags and fused reporters may be left off the sequences shown.

B1: PA2504 protein, T18 fusion of the bacterial two-hybrid system (plasmid p18C2504) (protein, UniProt Q9I0X8 1-205)
chain: MASWTLVDASAIAVRHPYTFYKPDAETIDRVAAGESVKLIFAFDTDNPDAPRAERLWVTVEGIEADGAFSGRLDNYPQYIRDLSLGERIVFEARHIINTEHDPRETPISRYARRCFVTRRVIDEGKAVGYLYREAPEEENDSGWRLMAGDESDDYMNTAGTTAYVSLGSVLNADDSILPLLDAPPGRAFERLADGSFIEVQGPEG
For B1, the binding result in experiment [1] is given as “binds”.

B2: His6-tagged PA2504 expressed in P. aeruginosa ΔPA2504 (plasmid pKGB2504) (protein, UniProt Q9I0X8 1-205)
chain: B1 chain
In the case of B2, in experiment [2], the binding result was “binds”.
